Laboratory results as given in patent US6455271B1, “Identification of novel antimicrobial agents using membrane potential indicator dyes” (XOMA Technology, Ltd, priority 1998, dated 2002).
At least one peptide structure holds a part that was inferred or is arguable (an end, a ring closure or a residue). Peptide text beside a SMILES is read from it.

Legend:
[1] = system: fungal cells; test: Confocal microscopy localization of membrane potential indicator dye in fungal cells; format: cell-based; settings: DiOC6(3) 10 ng/mL or MitoTracker Red CM-H2Xros 1 μg/mL, 1 hour peptide incubation
Protocol: Confocal microscopy provides focused fluorescence detection, one plane or slice at a time, at a focus level that allows unobstructed localization of fluorescence within cells. A suspension of 1×10^6 fungal cells/mL was prepared as described above in Example 1 and 1 mL was dispensed into each of four Eppendorf microcentrifuge tubes. Two μL of 1 mg/mL XMP.445 (in saline) was added to two tubes and all four tubes were incubated for 1 hour at 30° C. After the incubation, all tubes were centrifuged in an Eppendorf 5415 centrifuge. The supernatant was removed and the pellet resuspended in 1 mL of SDB. The membrane potential indicator dye DiOC6(3) (diluted in SDB from a stock solution of 2 mg/mL in EtOH) was added to one set of peptide-treated and untreated tubes to a final concentration of 10 ng/mL. The membrane potential indicator dye MitoTracker™ Red CM-H2Xros (from a freshly prepared solution of 500 μg/mL in DMSO) was added to another set of peptide-treated and untreated tubes to a final concentration of 1 μg/mL. The tubes were incubated at 30° C. for 30 min. After the incubation the tubes were centrifuged and the supernatant removed. The pellets were resuspended in 100 μL of 30% glycerol/PBS solution. Three μL from each tube was pipetted onto a microscope slide with a No. 1 cover glass and placed onto a Zeiss 510 Confocal Microscope that uses LSM Version 2.01 software. […]

[2] = system: Candida albicans strain SLU#1; test: Flow cytometry of fungal cells treated with test agent and membrane potential dye DiOC6(3); format: cell-based; settings: C. albicans, 1 hour incubation with agent, 10 ng/mL DiOC6(3), FL1 530 nm; FIG. 1 / FIG. 3
Protocol: A stock fungal cell suspension was prepared as follows. Fungi (Candida albicans strain SLU#1) were cultured on Sabouraud's dextrose agar plates [1 L water, 10 g neopeptone, 20 g dextrose, 15 g Bacto Agar]. One or two colonies from the agar plate were inoculated into 5 mL of Sabouraud's dextrose broth (SDB) [1 L water, 10 g neopeptone, 20 g dextrose] in a sterile 10 mL polypropylene tube and incubated for about 18 hours at 30° C. After this incubation, 4 mL of the fungal culture was inoculated into a flask containing 100 mL of SDB and incubated for about 5 hours or until log growth phase was reached. […] Fungal cell concentration was determined either by absorbance at 570 nm or by diluting 1:10 with Trypan Blue and counting the number of fungal cells using a hemacytometer. […]
Stock 1 mg/mL solutions of peptides XMP.391 and XMP.445 were prepared in saline, and six 2-fold serial dilutions were prepared using phosphate buffered saline (PBS). […] No peptide solution was added to the auto-fluorescence and baseline controls. […] The auto-fluorescence control aliquot was resuspended in 1 mL of SDB; the remainder of the samples and the baseline control were resuspended in 1 mL of 10 ng/mL DiOC6(3)/SDB. The auto-fluorescence control thus contained fungal cells in SDB alone (without XMP peptide and without dye), while the baseline control contained fungal cells with dye (but without XMP peptide). […]

CC[C@H](C)[C@H](NC(=O)[C@H](CC(C)C)NC(=O)[C@H](Cc1c[nH]c2ccccc12)NC(=O)CNC(=O)[C@@H](NC(=O)[C@@H](N)CCCCN)C(C)C)C(=O)N[C@@H](CCC(N)=O)C(=O)N[C@@H](CC(C)C)C(=O)N[C@@H](Cc1ccccc1)C(=O)N[C@@H](Cc1c[nH]cn1)C(=O)N[C@@H](CCCCN)C(=O)N[C@@H](CCCCN)C(=O)O [XMP.391] (H-KVGWLIQLFHKK-OH; N-terminus and C-terminus assumed)
fluorescence intensity and localization by confocal microscopy vs untreated cells [1]: increased fluorescence intensity that was localized at the mitochondria | change in DiOC6(3) fluorescence intensity (mean channel from baseline) vs. concentration [2]: concentration-dependent increase in fluorescence intensity
